This is an account of results in paper PMC4668369.

Sequences of proteins named here, by UniProt entry; tags and fusion partners are left off.
UniProt K9N643: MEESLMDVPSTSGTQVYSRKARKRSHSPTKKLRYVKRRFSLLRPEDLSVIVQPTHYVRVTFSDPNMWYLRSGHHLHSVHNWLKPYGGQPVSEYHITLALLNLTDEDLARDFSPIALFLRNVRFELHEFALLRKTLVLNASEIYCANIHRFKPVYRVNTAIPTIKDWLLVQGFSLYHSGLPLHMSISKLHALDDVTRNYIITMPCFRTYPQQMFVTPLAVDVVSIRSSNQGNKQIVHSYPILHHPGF

These are yes or no findings as the source states them, for the method shown. Binding seen in cells or lysates may run through a third protein. Some entries that bind do so weakly or less than the wild type. For some assays here: Tags and fused reporters may be left off the sequences shown.

For assay [1], the target named is Flag-MDA-5C (amino-terminal CARD domain of MDA5, aa 1–287) (UniProt Q9BYX4). The assay can be described thus: co-IP.
Assay [2] concerns the target T1, Flag-MDA-5H (carboxyl terminal helicase domain of MDA5, aa 287–1025) (UniProt Q9BYX4).
T1 sequence: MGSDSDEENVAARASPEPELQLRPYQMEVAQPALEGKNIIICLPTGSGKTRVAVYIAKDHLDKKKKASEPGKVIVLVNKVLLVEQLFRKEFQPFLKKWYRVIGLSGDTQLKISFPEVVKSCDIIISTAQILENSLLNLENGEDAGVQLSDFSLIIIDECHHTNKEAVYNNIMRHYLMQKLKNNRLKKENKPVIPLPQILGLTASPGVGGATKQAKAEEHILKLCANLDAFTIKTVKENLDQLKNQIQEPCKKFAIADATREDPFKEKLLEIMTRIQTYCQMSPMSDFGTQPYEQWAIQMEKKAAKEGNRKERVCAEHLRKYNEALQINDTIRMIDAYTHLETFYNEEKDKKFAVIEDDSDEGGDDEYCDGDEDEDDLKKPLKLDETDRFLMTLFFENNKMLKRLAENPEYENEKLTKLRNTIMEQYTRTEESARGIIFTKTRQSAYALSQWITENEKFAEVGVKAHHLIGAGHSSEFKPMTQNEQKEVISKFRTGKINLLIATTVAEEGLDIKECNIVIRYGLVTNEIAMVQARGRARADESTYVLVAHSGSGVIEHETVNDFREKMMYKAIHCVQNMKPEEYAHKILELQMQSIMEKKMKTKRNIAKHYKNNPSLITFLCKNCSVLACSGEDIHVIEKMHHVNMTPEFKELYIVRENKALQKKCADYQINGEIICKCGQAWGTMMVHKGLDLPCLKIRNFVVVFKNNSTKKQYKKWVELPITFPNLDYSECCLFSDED
Briefly: co-IP.

In the case of “MERS-CoV ORF4b protein, HA-tagged (from UniProt K9N643 1-246)”, the binding entry in assay [1] and in assay [2] was “binds” each time.
